Reference: paper PMC8224235
No constants are given. Whether binding was seen depends on the method and setting. Some binding calls cover weakened binding; strength is not graded here. Tags and fused reporters may be left off the sequences shown. Values belong to the binder of their own block, whether it stands above or below them.

Biological target: T1, Ume6-MYC (Ume6 with a carboxyl-terminal 13×MYC tag) (S. cerevisiae) (UniProt P39001)
T1 sequence: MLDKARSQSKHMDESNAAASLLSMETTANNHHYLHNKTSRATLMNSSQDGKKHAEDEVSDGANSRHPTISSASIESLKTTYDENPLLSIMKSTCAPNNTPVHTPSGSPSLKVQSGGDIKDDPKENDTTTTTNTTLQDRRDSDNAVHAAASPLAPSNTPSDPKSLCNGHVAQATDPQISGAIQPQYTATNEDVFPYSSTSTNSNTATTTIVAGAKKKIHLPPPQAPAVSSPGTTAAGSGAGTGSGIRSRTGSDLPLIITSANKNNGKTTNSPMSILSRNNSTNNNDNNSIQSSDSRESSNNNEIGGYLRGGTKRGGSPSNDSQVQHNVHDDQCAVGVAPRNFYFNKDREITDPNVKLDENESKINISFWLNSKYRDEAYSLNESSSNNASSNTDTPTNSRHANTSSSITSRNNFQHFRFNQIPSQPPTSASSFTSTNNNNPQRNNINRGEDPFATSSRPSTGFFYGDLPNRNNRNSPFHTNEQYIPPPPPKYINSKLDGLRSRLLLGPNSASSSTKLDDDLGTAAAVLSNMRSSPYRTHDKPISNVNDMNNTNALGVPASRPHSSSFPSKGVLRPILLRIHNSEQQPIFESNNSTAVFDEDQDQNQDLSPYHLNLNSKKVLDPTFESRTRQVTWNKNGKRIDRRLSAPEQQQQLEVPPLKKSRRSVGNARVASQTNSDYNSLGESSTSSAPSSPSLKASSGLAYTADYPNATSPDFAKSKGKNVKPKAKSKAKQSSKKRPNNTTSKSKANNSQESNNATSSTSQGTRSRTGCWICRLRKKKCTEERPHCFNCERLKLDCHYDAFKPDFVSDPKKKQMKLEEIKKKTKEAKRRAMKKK
Assay: sequential chromatin immunoprecipitation (ChIP re-ChIP); cells cross-linked with 10 mM dimethyl adipimidate, then 1% formaldehyde; chromatin sheared to 300-400 bp; Ume6-MYC precipitated with anti-MYC, eluted and reprecipitated with anti-HA (Ime1-HA or Rpd3-HA); read out by PCR of IME2 and SPO13 promoter DNA against TELVI; cells in YEPD, YPKAc or SPM (1 and 3.5 h)

binding: binds
B1: Ime1-HA (Ime1 with a carboxyl-terminal 3×HA tag) (protein, UniProt P21190 1-360)
chain: MQADMHGKLHAALEDGFFLFPFEQQQQPNIYYDTTTDQEDRPCFSFGSTISPRSWHFEKSDKIASSQLQNLVHTQPIHLINPQILFNEEFLNLENIDSQPISKETKTTKDCTMATGPERGKKSSESTRSSSLSSLFSNDESASTFHSSFNNHDNFQKSNRNGDDIDISDTIKYETNTNAQKDIKIFQENFEFNEFPYTQDFYPYTTNYTYSKPTNIHESINSKNTDSYSQYQDQFPPHTDNIHSFNNRHYSNHKSTNCNYYNNTSNNNNASDNVYEADPFIDEPQVPSYYYPLEIAFDVEKSPPPSLQKLNSKELEFLKKLNSKLSRYAAAYSFSSSNDQDYYDKVRFQEISYKFSKTYS

binding: binds
B2: Rpd3-HA (Rpd3 with a carboxyl-terminal 3×HA tag) (protein, UniProt P32561 1-433)
chain: MVYEATPFDPITVKPSDKRRVAYFYDADVGNYAYGAGHPMKPHRIRMAHSLIMNYGLYKKMEIYRAKPATKQEMCQFHTDEYIDFLSRVTPDNLEMFKRESVKFNVGDDCPVFDGLYEYCSISGGGSMEGAARLNRGKCDVAVNYAGGLHHAKKSEASGFCYLNDIVLGIIELLRYHPRVLYIDIDVHHGDGVEEAFYTTDRVMTCSFHKYGEFFPGTGELRDIGVGAGKNYAVNVPLRDGIDDATYRSVFEPVIKKIMEWYQPSAVVLQCGGDSLSGDRLGCFNLSMEGHANCVNYVKSFGIPMMVVGGGGYTMRNVARTWCFETGLLNNVVLDKDLPYNEYYEYYGPDYKLSVRPSNMFNVNTPEYLDKVMTNIFANLENTKYAPSVQLNHTPRDAEDLGDVEEDSAEAKDTKGGSQYARDLHVEHDNEFY
